Results reported in paper doi:10.1101/701474.
Results are given in words; binding and its absence hold for the method and conditions named. Binding seen in cells or lysates may run through a third protein. Some entries that bind do so weakly or less than the wild type. For some of these results: Sequences can lack the tags named with a protein.

Amino acid sequences for entries named in this document (tags omitted).
UniProt P14635: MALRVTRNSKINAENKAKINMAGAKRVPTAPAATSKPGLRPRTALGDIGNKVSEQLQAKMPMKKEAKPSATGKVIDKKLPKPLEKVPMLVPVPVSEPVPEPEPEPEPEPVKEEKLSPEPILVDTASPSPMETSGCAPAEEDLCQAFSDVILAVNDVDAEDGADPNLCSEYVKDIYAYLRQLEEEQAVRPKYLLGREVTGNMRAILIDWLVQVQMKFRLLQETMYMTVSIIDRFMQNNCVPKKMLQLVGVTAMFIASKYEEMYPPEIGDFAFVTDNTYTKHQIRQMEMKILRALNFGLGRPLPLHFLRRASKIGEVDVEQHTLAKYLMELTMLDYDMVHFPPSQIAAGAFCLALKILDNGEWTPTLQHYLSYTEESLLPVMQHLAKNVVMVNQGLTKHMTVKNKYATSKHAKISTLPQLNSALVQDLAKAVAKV

B1: MAD1α (endogenous, HeLa) (protein, UniProt Q9Y6D9-1 1-718)
chain: MEDLGENTMVLSTLRSLNNFISQRVEGGSGLDISTSAPGSLQMQYQQSMQLEERAEQIRSKSHLIQVEREKMQMELSHKRARVELERAASTSARNYEREVDRNQELLTRIRQLQEREAGAEEKMQEQLERNRQCQQNLDAASKRLREKEDSLAQAGETINALKGRISELQWSVMDQEMRVKRLESEKQELQEQLDLQHKKCQEANQKIQELQASQEARADHEQQIKDLEQKLSLQEQDAAIVKNMKSELVRLPRLERELKQLREESAHLREMRETNGLLQEELEGLQRKLGRQEKMQETLVGLELENERLLAKLQSWERLDQTMGLSIRTPEDLSRFVVELQQRELALKDKNSAVTSSARGLEKARQQLQEELRQVSGQLLEERKKRETHEALARRLQKRVLLLTKERDGMRAILGSYDSELTPAEYSPQLTRRMREAEDMVQKVHSHSAEMEAQLSQALEELGGQKQRADMLEMELKMLKSQSSSAEQSFLFSREEADTLRLKVEELEGERSRLEEEKRMLEAQLERRALQGDYDQSRTKVLHMSLNPTSVARQRLREDHSQLQAECERLRGLLRAMERGGTVPADLEAAAASLPSSKEVAELKKQVESAELKNQRLKEVFQTKIQEFRKACYTLTGYQIDITTENQYRLTSLYAEHPGDCLIFKATSPSGSKMQLLETEFSHTVGELIEVHLRRQDSIPAFLSSLTLELFSRQTVA
B2: MAD1α, Flag-epitope tagged (protein, UniProt Q9Y6D9-1 1-718)
chain: B1 chain
B3: MAD1-Flag (39-329aa), wild type (domain or fragment, UniProt Q9Y6D9 39-329)
chain: GSLQMQYQQSMQLEERAEQIRSKSHLIQVEREKMQMELSHKRARVELERAASTSARNYEREVDRNQELLTRIRQLQEREAGAEEKMQEQLERNRQCQQNLDAASKRLREKEDSLAQAGETINALKGRISELQWSVMDQEMRVKRLESEKQELQEQLDLQHKKCQEANQKIQELQASQEARADHEQQIKDLEQKLSLQEQDAAIVKNMKSELVRLPRLERELKQLREESAHLREMRETNGLLQEELEGLQRKLGRQEKMQETLVGLELENERLLAKLQSWERLDQTMGLSIR
B4: MAD1 (endogenous, parental RPE1 cells) (protein, UniProt Q9Y6D9 1-718)
chain: B1 chain

What was measured:
[1] = biological target: Cyclin B1 (human (endogenous in HeLa)) (UniProt P14635); assay: co-IP
[2] = biological target: Cyclin B1 (RPE Cyclin B1-Venus+/-:Ruby-MAD2+/- cells) (human (endogenous in RPE1)) (UniProt P14635); assay: co-IP

Binder | binding [1] | binding [2]
B1 | binds | –
B2 | binds | –
B3 | binds | –
B4 | – | binds
